{
  "source": "patent US20020103251A1",
  "about": "“Cholesterol-lowering therapy” (priority 1997, published 2002)",
  "origin": "cited, not measured here",
  "test_system": "coronary death and total mortality",
  "settings": "in vivo; cited from earlier work",
  "note": "At least one compound was matched to its structure with a doubt left.",
  "data": [
    {"smiles": "CCC(C)(C)C(=O)O[C@H]1C[C@@H](C)C=C2C=C[C@H](C)[C@H](CC[C@@H]3C[C@@H](O)CC(=O)O3)[C@H]21", "note": "[simvastatin]", "values": [
      {"measurement": "risk of coronary death and total mortality", "value": "highly significant reduction"}
    ]}
  ]
}
